Assay results reported in PubChem BioAssay AID445 (National Center for Advancing Translational Sciences (NCATS), 2006).
This is one part of the list. Further columns of the screen follow, without active or inactive calls. Most of these compounds were active or inconclusive in the main read-out, so they are no random draw. Potencies come from curve fits of mixed quality, noted in brackets.

Assay: IkB Signaling
Settings: ABC-DLBCL IkBa-CBG/CBR dual luciferase ratio (green luciferase fused to IkBa over red control in OCI-Ly3 lymphoma cells), 4 h
How it was run: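 Curves were fitted separately to fusion (green), unfused (red) and ratio luminescence, then classed by r2, magnitude and activity. Cells: OCI-Ly3, 4 h compound plus doxycycline at 37C; 10 uM MG-132 defined full response.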

[1] = measured here: control luc red channel unless noted
[2] = measured here: IkB-luc green channel
[3] = measured here: control luc red channel

With `COc1ccc(NC(=O)CN(c2cccc(C)c2C)S(=O)(=O)c2ccccc2)cc1OC` the AC50 [1] was 25.1 µM [falling, single point].
With `CC(=O)c1cccc(NC(=O)c2noc3c2CC(C)CC3)c1` (stereo not drawn) the AC50 [1] was 1.58 µM [rising, full curve, poor fit].
In the case of `Cc1cc2c(cc1C)C(c1cccc(OC(C)C)c1)CC(=O)N2` (stereo not drawn), the AC50 [1] is reported as 39.8 µM [falling, single point].
In the case of `CCc1ccc(S(=O)(=O)NCCc2csc(-c3ccccc3)n2)s1`, the AC50 [1] is reported as 7.94 µM [falling, partial curve].
For `COc1ccc(OC)c(Nc2c3c(nc4ccccc24)CCC3)c1`, the AC50 [1] was 7.94 µM [rising, partial curve].
In the case of `CCCN(Cc1cccs1)C(=O)Nc1ccc(F)c(Cl)c1`, the AC50 [1] is reported as 10 µM [falling, partial curve].
For `CCc1ccc(NC(=O)c2ccc(F)c(S(=O)(=O)NCCc3ccc(OC)c(OC)c3)c2)cc1`, the AC50 [1] was 39.8 µM [falling, partial curve].
In the case of `COc1cccc(Nc2sc(C(=O)c3ccc(Cl)cc3)c(N)c2C(=O)NCCc2ccc(OC)c(OC)c2)c1`, the AC50 [1] is reported as 12.6 µM [falling, partial curve].
For `Cc1ccc(C)c(NC(=O)Cn2c(=O)n(Cc3ccc4c(c3)OCO4)c(=O)c3ccccc32)c1`, the AC50 [1] was 10 µM [rising, partial curve].
In the case of `CCCSc1nnc2n(-c3cccc(C)c3)c(=O)c3c4c(sc3n12)CCCC4`, the AC50 [2] is reported as 31.6 µM [falling, single point] and the AC50 [3] is reported as 39.8 µM [falling, partial curve].
In the case of `COc1cc(OC)c(CN2CCN(c3ccc(F)cc3)CC2)cc1Br`, the AC50 [1] is reported as 12.6 µM [falling, partial curve].
With `Cn1c(Oc2ccccc2)nc2c1c(=O)n(Cc1ccc(Cl)cc1Cl)c(=O)n2C` the AC50 [1] was 10 µM [falling, partial curve].
In the case of `CC(C)CCNc1ncnc2c1cnn2-c1cccc(Cl)c1`, the AC50 [1] is reported as 39.8 µM [falling, single point].
For `Cc1ccccc1C(c1c(C)n(C)n(-c2ccccc2)c1=O)c1c(C)n(C)n(-c2ccccc2)c1=O`, the AC50 [1] was 39.8 µM [falling, single point].
In the case of `CCOc1ccc2c(c1)c(=O)c(C(=O)c1ccc(C)cc1)cn2Cc1ccccc1OC`, the AC50 [1] is reported as 20 µM [falling, partial curve].
With `CCOc1ccccc1NC(=O)CN1C(=O)C2(SCC(=O)N2c2ccc(C)cc2)c2ccccc21` (stereo not drawn) the AC50 [1] was 10 µM [falling, partial curve].
For `CCc1nnc(NC(=O)CCC(=O)N2CCN(CCc3ccccc3)CC2)s1`, the AC50 [1] was 3.16 µM [falling, full curve].
For `CC(C)c1ccc(NC(=O)Cn2c(=O)n(Cc3nc(-c4ccccc4)no3)c(=O)c3cc4c(cc32)OCO4)cc1`, the AC50 [1] was 7.94 µM [falling, partial curve].
With `CCS(=O)(=O)c1ncc(Cl)c(C(=O)N(Cc2ccccc2)c2ccc(OC)cc2)n1` the AC50 [1] was 2.51 µM [falling, partial curve].
For `O=C(CN1CCN(S(=O)(=O)c2ccc(F)cc2)CC1)Nc1ccc(Cl)c(C(F)(F)F)c1`, the AC50 [1] was 15.8 µM [falling, partial curve].
For `CCCOC(=O)c1ccc(NC(=O)CCC(=O)OCC)cc1`, the AC50 [1] was 1.26 µM [falling, full curve].
In the case of `CC(C)OCCCN1C(=O)c2[nH]nc(-c3ccccc3O)c2C1c1cccc(OCc2ccccc2)c1` (stereo not drawn), the AC50 [1] is reported as 12.6 µM [falling, partial curve].
In the case of `O=C1CC(c2ccco2)c2ccc3ccccc3c2N1` (stereo not drawn), the AC50 [1] is reported as 2 µM [rising, partial curve] [measured here: IkB-luc green channel].
In the case of `N=C(N)SCCON1C(=O)c2ccccc2C1=O`, the AC50 [1] is reported as 3.16 µM [falling, partial curve].
In the case of `O=C(Nc1nnc(S(=O)(=O)N2CCc3ccccc32)s1)c1ccccc1Cl`, the AC50 [1] is reported as 20 µM [rising, partial curve].
For `Cc1c2cnn(CC(=O)N3CCN(c4ccc(F)cc4)CC3)c(=O)c2c(C)n1Cc1ccccc1F`, the AC50 [1] was 10 µM [falling, partial curve].
With `CC1(C)Cc2ccccc2-c2nnc(SCC(=O)N3CCN(c4ccccc4)CC3)n21` the AC50 [1] was 12.6 µM [falling, partial curve].
In the case of `CN(C)c1ccc(CNC(=O)Cn2ccc3cc(S(=O)(=O)N4CCCCCC4)ccc32)cc1`, the AC50 [1] is reported as 2.51 µM [falling, full curve, poor fit].
In the case of `O=C(CCn1cnc2onc(-c3ccc(F)cc3)c2c1=O)N1CCN(c2ccccc2F)CC1`, the AC50 [1] is reported as 25.1 µM [falling, partial curve].
With `C=C(C)c1cccc(C(C)(C)NC(=O)N2CCN(c3ccccn3)CC2)c1` the AC50 [2] was 1.26 µM [falling, partial curve] and the AC50 [3] was 25.1 µM [falling, partial curve].
With `Cc1ccc2c(CC(=O)N(Cc3cccc(Cl)c3)C3CCS(=O)(=O)C3)coc2c1` (stereo not drawn) the AC50 [1] was 25.1 µM [falling, partial curve].
With `Cc1ccc(C(=O)CC2(O)C(=O)N(Cc3ccccc3)c3ccccc32)c(C)c1` (stereo not drawn) the AC50 [1] was 25.1 µM [falling, partial curve].
In the case of `CCOC(=O)C1CCCN(C(=O)c2ccc(NC(=O)c3nsc4ccccc34)cc2)C1` (stereo not drawn), the AC50 [1] is reported as 1.26 µM [falling, full curve].
For `COC(=O)c1ccccc1NC(=O)Cn1c(=O)cc(C)c2c(C)nn(-c3cccc(Cl)c3C)c21`, the AC50 [1] was 7.94 µM [falling, partial curve].
In the case of `COc1ccc(Cl)cc1NC(=O)Cn1cnc2sc(C)c(S(=O)(=O)N3CCN(c4ccccc4OC)CC3)c2c1=O`, the AC50 [1] is reported as 12.6 µM [falling, partial curve].
With `COc1ccccc1-n1c(=O)oc2ccc(Cl)cc2c1=O` the AC50 [1] was 6.31 µM [falling, full curve].
For `CCCc1nn2c(=O)cc(COC(=O)c3ccco3)nc2s1`, the AC50 [1] was 39.8 µM [falling, single point].
In the case of `COc1ccc(CCNC(=O)Cn2c(=O)c3cccn3c3ccccc32)cc1OC`, the AC50 [1] is reported as 15.8 µM [falling, partial curve].
For `COc1ccccc1N1CC(O)=C(c2nc3ccccc3s2)C1=N`, the AC50 [1] was 12.6 µM [falling, partial curve].
For `CCOC(=O)Cn1c(=O)n(CC2CCCO2)c2nc(-c3ccc(CC)cc3)nc(C(N)=O)c21` (stereo not drawn), the AC50 [1] was 10 µM [falling, partial curve].
With `CC(=O)Nc1c(C)nn(-c2ccccc2)c1N1CCC(C(=O)Nc2cccc(C(F)(F)F)c2)CC1` the AC50 [1] was 39.8 µM [falling, single point].
In the case of `CCCN(CCC)C(=O)C1CCCN(c2ncnc3c2nc2n3CCCCC2)C1` (stereo not drawn), the AC50 [1] is reported as 25.1 µM [falling, partial curve].
For `CCc1nnc2c3ccccc3nc(N3CCN(c4cc(C)ccc4C)CC3)n12`, the AC50 [1] was 15.8 µM [falling, partial curve].
For `COc1ccc2[nH]c(=O)c(CN(Cc3cccnc3)C(=O)Nc3ccccc3)cc2c1`, the AC50 [1] was 15.8 µM [falling, partial curve].
In the case of `Cc1ccc(S(=O)(=O)c2nnn3c2nc(N2CCC(C(N)=O)CC2)c2cc(Cl)ccc23)cc1C`, the AC50 [1] is reported as 2 µM [rising, partial curve, poor fit].
For `CC(CCc1ccco1)NC(=O)Nc1cccc(F)c1` (stereo not drawn), the AC50 [1] was 31.6 µM [falling, single point].
In the case of `Cc1nc2c(c(C)nn2C(C)(C)C)c(C)c1CCC(=O)Nc1ccc(Br)cc1Br`, the AC50 [1] is reported as 10 µM [falling, partial curve].
With `CCc1cc2ccccc2nc1SCC(=O)N1CCN(C(=O)c2ccco2)CC1` the AC50 [1] was 15.8 µM [falling, partial curve].
In the case of `Cc1c(C(=O)N(C)C)sc2c1c(=O)n(-c1ccc(Cl)c(Cl)c1)c(=O)n2CC(=O)Nc1ccc(Br)cc1F`, the AC50 [1] is reported as 0.0251 µM [rising, full curve, poor fit].
For `COc1ccc(-n2cc(-c3ccc4c(c3)OCO4)n(CC(=O)Nc3cccc(C)c3)c2=O)cc1`, the AC50 [1] was 39.8 µM [falling, single point].
With `CCCCC1CCC(CCCC(C)CCC(=O)O)CC1` (stereo not drawn) the AC50 [1] was 25.1 µM [falling, single point].
In the case of `O=C(CC1N=C2c3ccccc3N=C(SCC(=O)Nc3ccc(F)cc3)N2C1=O)NCc1ccc2c(c1)OCO2` (stereo not drawn), the AC50 [1] is reported as 12.6 µM [falling, partial curve, poor fit].
For `Cc1ccccc1Cn1c(SCc2ccc(C(=O)NCCc3ccccc3)cc2)nc2ccncc21`, the AC50 [1] was 10 µM [falling, partial curve].
For `CCN(CC)c1cc2c(cc1F)c(=O)c(S(=O)(=O)c1ccccc1)cn2C`, the AC50 [1] was 31.6 µM [falling, single point].
With `CCOc1ccc(NC(=O)CN2CCSc3ccc(S(=O)(=O)N4CCCC4)cc32)cc1` the AC50 [1] was 20 µM [falling, partial curve, poor fit].
For `Cc1noc(Cn2c(=O)c3ccccc3n(CC(=O)Nc3ccc(C(C)C)cc3)c2=O)n1`, the AC50 [1] was 39.8 µM [falling, single point].
For `Cc1cc(N)c2ccccc2[n+]1CCCCCCCCCCCCCC[n+]1c(C)cc(N)c2ccccc21`, the AC50 [2] was 31.6 µM [falling, partial curve] and the AC50 [3] was 7.94 µM [falling, full curve, poor fit].
With `CCOC(=O)c1c(NC(=O)CSc2nnc(-c3ccccc3C)n2C)sc(C(C)=O)c1C` the AC50 [1] was 10 µM [falling, partial curve].
In the case of `O=C(NCCn1ccc2ccccc21)c1ccc(S(=O)(=O)N2CCOCC2)cc1`, the AC50 [1] is reported as 3.98 µM [rising, partial curve].
With `CCc1cccc(NS(=O)(=O)c2cc(-c3cnc(C)o3)ccc2OC)c1` the AC50 [1] was 39.8 µM [falling, single point].
